Reference: patent US20070167360A1
No constants are given. Whether binding was seen depends on the method and setting. In cells and extracts the contact can be indirect. Some entries that bind do so weakly or less than the wild type.

Amino acid sequences for entries named in this document (tags omitted). Residues count along the entry.
UniProt Q62151, residues 23-340: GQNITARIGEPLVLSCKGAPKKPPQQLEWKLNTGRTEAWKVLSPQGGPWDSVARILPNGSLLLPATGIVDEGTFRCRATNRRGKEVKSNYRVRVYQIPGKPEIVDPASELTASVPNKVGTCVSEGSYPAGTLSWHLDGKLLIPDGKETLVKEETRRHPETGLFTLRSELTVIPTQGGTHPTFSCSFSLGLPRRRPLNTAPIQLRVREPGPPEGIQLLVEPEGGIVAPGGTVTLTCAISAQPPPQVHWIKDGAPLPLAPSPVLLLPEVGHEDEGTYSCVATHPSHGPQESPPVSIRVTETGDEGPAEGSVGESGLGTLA

Experiments:
[1] = molecular target: T1, S100b (endogenous, in splenic extracts of mice induced to develop EAE) (mouse) (UniProt P50114); experiment: co-immunoprecipitation from splenic extracts with anti-S100b IgG, immunoblot with anti-RAGE IgG
T1 sequence (looked up): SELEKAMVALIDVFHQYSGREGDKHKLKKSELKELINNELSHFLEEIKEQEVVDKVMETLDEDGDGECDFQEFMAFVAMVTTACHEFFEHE

[2] = molecular target: T1, S100b (endogenous, in splenic extracts of mice induced to develop EAE) (mouse); experiment: co-immunoprecipitation from splenic extracts (as told in the Discussion)

binding [1]: binds
binding [2]: binds
Substance: Murine soluble (s) RAGE (from UniProt Q62151 23-340) (receptor)
